Reference: PubChem BioAssay AID504804 (Drosophila RNAi Screening Center, 2011)
Test: 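Fly genes whose loss lessens doxorubicin-driven cell death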 (primary screen). Cell system: Drosophila Kc cells. Reagents: long dsRNA against Drosophila genes, 0.5 µg dsRNA per well. Duration: 96 h (48 h knock-down, then 48 h drug). Conditions: doxorubicin 5 µg/ml for 48 h, added 48 h after dsRNA. Measurement: 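Viability measured as cellular ATP by luminescence after 48 h knock-down then 48 h doxorubicin at 5 µg/ml; unnormalised plate counts for each replicate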. Direction: raw ATP luminescence: higher = more viable cells, protection from doxorubicin. Active means: 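z-score of 2 or more over plate mean in both duplicates, retained only when retests and separate dsRNAs confirm the protection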.
The deposit covers about 19,000 reagents; below is an unselected part of those with a known target gene and a result. In the full data, 47 (0.25%) were called active. 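Signals are raw, not normalised; exact z-scores behind calls not deposited; actives needed confirmation, so some wells reaching 2 SD are inactive.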 Names joined by + are all predicted targets of the reagent. No sequences are given here.

| predicted target | amplicon | SD above plate mean | raw ATP luminescence, replicate 1 | raw ATP luminescence, replicate 2 | activity call |
| --- | --- | --- | --- | --- | --- |
| CG14111 | DRSC10114 | – | 77953 | 83067 | inactive |
| CG6108 (retired record) | DRSC02929 | – | 73513 | 77393 | inactive |
| CG14367 | DRSC14829 | – | 88280 | 81490 | inactive |
| Tim23 | DRSC21240 | – | 1.97e5 | 2.24e5 | inactive |
| CG16779 | DRSC15153 | – | 65403 | 42180 | inactive |
| Pex3 | DRSC10731 | – | 33170 | 35537 | inactive |
| AP-2mu | DRSC14090 | – | 48053 | 70817 | inactive |
| CG2533 | DRSC19855 | – | 3.86e5 | 3.90e5 | inactive |
| CG10339 | DRSC04065 | – | 46697 | 55343 | inactive |
| CG14052 | DRSC17907 | – | 59530 | 69560 | inactive |
| CG14052 | DRSC18192 | – | 56740 | 66660 | inactive |
| CG32801 | DRSC17964 | – | 65360 | 58490 | inactive |
| Sobp | DRSC07312 | – | 47867 | 47887 | inactive |
| ssp | DRSC10252 | – | 38663 | 36123 | inactive |
| ND-SGDH | DRSC11102 | – | 55213 | 58273 | inactive |
| Ance-2 | DRSC02539 | – | 85883 | 81603 | inactive |
| Sol1 | DRSC15263 | – | 60040 | 51833 | inactive |
| Sol1 | DRSC15271 | – | 53733 | 40813 | inactive |
| Sol1 | DRSC15681 | – | 66203 | 58160 | inactive |
| Gr94a | DRSC13597 | – | 2.77e5 | 2.07e5 | inactive |
| Abl | DRSC09661 | – | 66287 | 36403 | inactive |
| Hsc70-1 | DRSC11185 | – | 63833 | 53017 | inactive |
| boca | DRSC06408 | – | 52207 | 76700 | inactive |
| stac | DRSC13693 | – | 2.30e5 | 2.10e5 | inactive |
| stac | DRSC14392 | – | 60360 | 50970 | inactive |
| dnt | DRSC03522 | – | 1.02e5 | 84953 | inactive |
| Ir93a | DRSC15212 | – | 41840 | 40037 | inactive |
| Ir93a | DRSC15213 | – | 53090 | 80530 | inactive |
| Prosalpha3T | DRSC15226 | – | 53530 | 53030 | inactive |
| ham | DRSC02070 | – | 44330 | 41903 | inactive |
| ham | DRSC02512 | – | 63403 | 58673 | inactive |
| ham | DRSC02513 | – | 64630 | 66900 | inactive |
| Lipt2 | DRSC12338 | – | 18223 | 22807 | inactive |
| PolrMT | DRSC00660 | – | 1.12e5 | 62210 | inactive |
| Art2 | DRSC00627 | – | 29360 | 29687 | inactive |
| DIP-kappa | DRSC01336 | – | 2.26e5 | 1.92e5 | inactive |
| DIP-kappa | DRSC01337 | – | 3.27e5 | 2.74e5 | inactive |
| CG33269 | DRSC10585 | – | 69943 | 63340 | inactive |
| Rsph3 | DRSC09696 | – | 37937 | 36640 | inactive |
| Rsph3 | DRSC10211 | – | 76640 | 95563 | inactive |
| CG8520 | DRSC07206 | – | 66180 | 53400 | inactive |
| CG7800 | DRSC16315 | – | 66963 | 59320 | inactive |
| CG14893 | DRSC15015 | – | 74210 | 70620 | inactive |
| dcma | DRSC00246 | – | 3.36e5 | 3.05e5 | inactive |
| dcma | DRSC00338 | – | 30210 | 36917 | inactive |
| pira | DRSC19494 | – | 3.22e5 | 3.17e5 | inactive |
| CG42613 | DRSC13332 | – | 83496 | 1.31e5 | inactive |
| CG42613 | DRSC14769 | – | 34260 | 37360 | inactive |
| CG42613 | DRSC15802 | – | 47120 | 79833 | inactive |
| Diedel | DRSC14317 | – | 60760 | 53150 | inactive |
| beat-Ia | DRSC03489 | – | 56193 | 71420 | inactive |
| Frq2 | DRSC20245 | – | 4.06e5 | 3.40e5 | inactive |
| CG11663 | DRSC17793 | – | 21100 | 23230 | inactive |
| kat-60L1 | DRSC12184 | – | 54247 | 30720 | inactive |
| CG17633 | DRSC02631 | – | 40850 | 70073 | inactive |
| AstC-R1 | DRSC10799 | – | 51720 | 50190 | inactive |
| Chd3 | DRSC11114 | – | 83953 | 51080 | inactive |
| CG32564 | DRSC19933 | – | 4.52e5 | 3.78e5 | inactive |
| CG4815 | DRSC15653 | – | 59720 | 35410 | inactive |
| Eip78C | DRSC11864 | – | 29523 | 28063 | inactive |
| Ythdc1 | DRSC08141 | – | 37557 | 36603 | inactive |
| CG3557 | DRSC00614 | – | 93040 | 59557 | inactive |
| CG31730 | DRSC01308 | – | 3.02e5 | 3.05e5 | inactive |
| CG34247 | DRSC09933 | – | 65937 | 59063 | inactive |
| Eig71Ee | DRSC11152 | – | 69097 | 63217 | inactive |
| COX7C | DRSC06831 | – | 64637 | 65600 | inactive |
| CG30047 | DRSC05340 | – | 86190 | 99057 | inactive |
| Vps16A | DRSC16422 | – | 24890 | 66590 | inactive |
| CG31835 + CG42585 | DRSC01412 | – | 1.95e5 | 2.05e5 | inactive |
| CG13364 | DRSC17898 | – | 55580 | 52460 | inactive |
| CG13364 | DRSC21263 | – | 3.04e5 | 3.12e5 | inactive |
| CG13077 | DRSC02181 | – | 71660 | 53790 | inactive |
| Tmem43 | DRSC10964 | – | 65127 | 74727 | inactive |
| ringer | DRSC10455 | – | 43950 | 46017 | inactive |
| CG12182 | DRSC08142 | – | 91737 | 76020 | inactive |
| CG15916 | DRSC19740 | – | 3.87e5 | 3.12e5 | inactive |
| CG14931 | DRSC02413 | – | 22033 | 58300 | inactive |
| PolE1 | DRSC16112 | – | 34723 | 30880 | inactive |
| CG13731 | DRSC10059 | – | 39733 | 49193 | inactive |
| AANATL2 | DRSC03227 | – | 21800 | 20557 | inactive |
| Cyfip | DRSC15679 | – | 42487 | 23890 | inactive |
| Bem46 | DRSC00275 | – | 24447 | 29127 | inactive |
| CG31787 | DRSC01632 | – | 2.32e5 | 2.21e5 | inactive |
| CG31606 | DRSC01012 | – | 2.73e5 | 2.73e5 | inactive |
| grau | DRSC04691 | – | 46663 | 41770 | inactive |
| CG8399 | DRSC07163 | – | 46010 | 66817 | inactive |
| hpRNA:CR32205 | DRSC09890 | – | 63440 | 57283 | inactive |
| CG13344 | DRSC06378 | – | 66260 | 56267 | inactive |
| CG13054 | DRSC09935 | – | 87437 | 53490 | inactive |
| CG33268 | DRSC10143 | – | 64257 | 60033 | inactive |
| Trissin | DRSC14994 | – | 83350 | 64420 | inactive |
| Rbp4 | DRSC16818 | – | 97830 | 87850 | inactive |
| CG42580 | DRSC20397 | – | 1.68e5 | 1.93e5 | inactive |
| asl | DRSC12319 | – | 45033 | 14650 | inactive |
| Ir67b | DRSC09876 | – | 56807 | 54550 | inactive |
| SdhBL | DRSC20039 | – | 3.47e5 | 3.35e5 | inactive |
| Traf6 | DRSC18725 | – | 36950 | 53170 | inactive |
| CG32170 | DRSC09452 | – | 79870 | 98753 | inactive |
| UBL3 | DRSC20298 | – | 2.23e5 | 1.81e5 | inactive |
| CG8534 | DRSC16439 | – | 58937 | 70000 | inactive |
| CG4622 | DRSC04479 | – | 63410 | 53540 | inactive |
| Cyp6a2 | DRSC05014 | – | 56503 | 90600 | inactive |
| Dab | DRSC11140 | – | 99293 | 50390 | inactive |
| a10 | DRSC11319 | 2 to 3 SD above plate mean | 1.12e5 | 92410 | active |
| CG7248 | DRSC10788 | – | 74390 | 60033 | inactive |
| CG9300 | DRSC11064 | – | 20283 | 26027 | inactive |
| Tif-IA | DRSC03717 | – | 50860 | 59313 | inactive |
| Tif-IA | DRSC03726 | – | 48507 | 45980 | inactive |

Called active, of those listed so far:
| predicted target | amplicon | SD above plate mean | raw ATP luminescence, replicate 1 | raw ATP luminescence, replicate 2 | activity call |
| --- | --- | --- | --- | --- | --- |
| a10 | DRSC11319 | 2 to 3 SD above plate mean | 1.12e5 | 92410 | active |
